The values are deposited in ChEMBL (CHEMBL3988442, “University of Dundee, Small-Polar-MMV Screening Library” (2021)).

Amino acid sequences for entries named in this document (tags omitted). Residues count along the entry.
UniProt A4I591, 1-473: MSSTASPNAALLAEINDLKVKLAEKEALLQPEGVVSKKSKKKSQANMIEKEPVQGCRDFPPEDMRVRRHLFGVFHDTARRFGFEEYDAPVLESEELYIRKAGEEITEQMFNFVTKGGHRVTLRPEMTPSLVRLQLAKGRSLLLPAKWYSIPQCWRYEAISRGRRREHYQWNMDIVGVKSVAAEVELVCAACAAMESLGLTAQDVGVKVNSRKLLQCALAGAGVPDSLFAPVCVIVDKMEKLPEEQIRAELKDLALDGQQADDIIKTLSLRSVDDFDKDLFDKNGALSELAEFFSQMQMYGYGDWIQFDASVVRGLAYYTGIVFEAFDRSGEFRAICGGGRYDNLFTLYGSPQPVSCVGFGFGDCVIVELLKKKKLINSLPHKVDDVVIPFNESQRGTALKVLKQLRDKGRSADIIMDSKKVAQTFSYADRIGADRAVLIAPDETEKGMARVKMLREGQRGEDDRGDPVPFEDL
UniProt Q4DA54, 1-478: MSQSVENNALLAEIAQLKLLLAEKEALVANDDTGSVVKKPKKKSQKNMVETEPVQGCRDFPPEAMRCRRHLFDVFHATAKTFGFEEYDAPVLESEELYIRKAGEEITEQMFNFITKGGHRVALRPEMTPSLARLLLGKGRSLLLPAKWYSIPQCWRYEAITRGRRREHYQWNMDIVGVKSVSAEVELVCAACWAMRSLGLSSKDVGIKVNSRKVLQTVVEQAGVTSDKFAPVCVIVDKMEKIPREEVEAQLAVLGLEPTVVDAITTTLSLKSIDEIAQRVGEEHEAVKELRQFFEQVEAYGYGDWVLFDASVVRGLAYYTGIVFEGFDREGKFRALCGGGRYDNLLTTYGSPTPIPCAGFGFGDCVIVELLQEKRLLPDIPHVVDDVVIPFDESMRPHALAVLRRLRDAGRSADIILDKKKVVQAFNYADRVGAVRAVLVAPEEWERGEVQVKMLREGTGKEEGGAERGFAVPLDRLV
UniProt Q8IDJ8, 1-583: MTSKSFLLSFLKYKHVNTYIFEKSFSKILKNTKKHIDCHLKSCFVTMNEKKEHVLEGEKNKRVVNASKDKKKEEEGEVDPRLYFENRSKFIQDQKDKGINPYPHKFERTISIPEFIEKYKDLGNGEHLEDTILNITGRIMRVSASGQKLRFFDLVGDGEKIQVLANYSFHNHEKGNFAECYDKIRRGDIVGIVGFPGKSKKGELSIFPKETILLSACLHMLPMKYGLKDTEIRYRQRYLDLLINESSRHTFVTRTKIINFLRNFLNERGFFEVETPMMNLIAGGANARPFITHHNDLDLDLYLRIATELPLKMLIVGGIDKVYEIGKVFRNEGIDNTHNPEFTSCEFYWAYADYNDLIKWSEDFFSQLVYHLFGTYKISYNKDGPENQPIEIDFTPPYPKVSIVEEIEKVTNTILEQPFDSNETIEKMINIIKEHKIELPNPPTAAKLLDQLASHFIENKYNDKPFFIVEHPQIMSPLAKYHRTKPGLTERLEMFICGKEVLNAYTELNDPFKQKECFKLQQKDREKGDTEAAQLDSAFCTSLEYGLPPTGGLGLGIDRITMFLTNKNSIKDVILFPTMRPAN

LiHisRS: 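Enzyme assay of histidyl-tRNA synthetase; the read-out is not stated. Target: Histidine-tRNA ligase, Leishmania infantum (UniProt A4I591). Compounds at 30 µM. Higher reads as stronger inhibition (inferred: compounds with an IC50 in retests scored well above the rest). The assay is labelled LdHisRS but filed under L. infantum. Of about 69,000 compounds tested this way, about 410 (0.6%) reached 50% or more in at least one test.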
TcHisRS: 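Enzyme assay of histidyl-tRNA synthetase; the read-out is not stated. Target: Histidine-tRNA ligase, Trypanosoma cruzi CL Brener (UniProt Q4DA54). Concentration: 30 µM. Higher reads as stronger inhibition (inferred: compounds with an IC50 in retests scored well above the rest). About 69,000 compounds were tested under these conditions; 0.045% (about 31) showed 50% or more at least once.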
PfKRS1: 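Enzyme assay of the cytosolic lysyl-tRNA synthetase in 384-well plates, read by luminescence. Target: Lysine-tRNA ligase, Plasmodium falciparum 3D7 (UniProt Q8IDJ8). Compounds at 30 µM. Direction is inferred from only a few compounds that gave an IC50; most scored high, so higher reads as stronger inhibition. About 69,000 compounds were tested under these conditions; 0.071% (about 49) showed 50% or more at least once.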
Leishmania in macrophages: 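Cell assay of Leishmania donovani living inside macrophages; the read-out is not stated. Concentration: 30 µM. Higher reads as stronger inhibition (inferred: compounds with an IC50 in retests scored well above the rest). Size under these conditions: about 69,000 compounds, about 1,000 of them at 50% or above in at least one test.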

Results are given as percent effect. How 0% and 100% were set is not recorded. Most values in the screen are low, and negative values occur. Compounds were drawn at random from those tested, without regard to their results. A dash means the value is not listed here; it may have been measured.

| # | SMILES | LiHisRS | TcHisRS | PfKRS1 | Leishmania in macrophages |
|---|---|---|---|---|---|
| 1 | `O=C(c1cccc2ncccc12)N1CCCN(c2cccnn2)CC1` | 23.14% | 0.8403% | 5.078% | 17.37% |
| 2 | `COCc1nc(CN2CCOC(CNc3cccnn3)C2)cs1` (centres undefined) | 35.09% | 19.2% | 0.4408% | 12.19% |
| 3 | `CCCN1CCC2(CC1)COc1ccccc1S(=O)(=O)N(CC1CC1)C2` | 5.128% | 2.439% | 1.465% | - |
| 4 | `O=C(CCN1CCCCC1c1cc2ccccc2[nH]1)N1CCOCC1` (centres undefined) | 12.07% | 2.618% | -0.6128% | -22.89% |
| 5 | `COC(=O)c1cccc2nc([C@H]3CCN(C4CCN(C)CC4)C3)oc12` | 16.22% | -1.493% | 2.353% | 7.808% |
| 6 | `CCCN1CCN(C(=O)c2ccn(COc3ccc(F)cc3)n2)CC1` | 12.07% | -0.8696% | -0.6031% | 3.429% |
| 7 | `Cc1cscc1C(=O)Nc1cc(CSCCO)ccn1` | 9.6% | 0.9804% | -3.232% | 21.07% |
| 8 | `[H][C@]12CC[C@]([H])(CN(Cc3ccc(F)cc3)C1)N(Cc1cccc(O)c1)C2` | - | - | - | -22.32% |
| 9 | `Nc1nccc(N2CCC(Cc3ccccc3Cl)(C(=O)O)CC2)n1` | 21.15% | 0.8333% | 3.77% | 10.94% |
| 10 | `CCS(=O)(=O)c1ccccc1N1CCC(N)CC1` | 10.91% | 5.263% | 0.4613% | -1.393% |
| 11 | `[H][C@@]12CCN(C(=O)Cc3ccsc3)C[C@]1([H])[C@H](c1nc(C)no1)CCO2` | - | - | - | 20.76% |
| 12 | `O=C(O)C(F)(F)F.[H][C@@]12COC[C@H](NS(C)(=O)=O)[C@]1([H])CN(Cc1ccc(CC)o1)C2` | - | - | - | -1.058% |
| 13 | `COc1cccc(-c2nc(C)c(C(=O)N[C@@H](C)C(=O)O)s2)c1` | 13.59% | -1.639% | 2.531% | -9.998% |
| 14 | `Cc1noc(C)c1C(C)NC(=O)N1CCCN(C(=O)c2ccsc2)CC1` (centres undefined) | 13.33% | 2.941% | 0.6445% | 9.436% |
| 15 | `CC(C)(N)c1cn(C2CCN(C3CCSCC3)CC2)nn1` | 14.46% | 3.867% | 0.5239% | 17.36% |
| 16 | `Cc1cc(NC(=O)NCc2nccn2C)ccc1OC(C)C` | 13.39% | 15% | 4.963% | 20.2% |
| 17 | `CN1CCC(NC(=O)c2cc(C3CCCCC3)nc3ccccc23)CC1` | 1.98% | 0% | 2.234% | 14.5% |
| 18 | `O=C(CS(=O)(=O)Cc1cc(Cl)c2c(c1)OCO2)N1CCCC1` | 4.464% | 1.734% | -0.4254% | 6.972% |
| 19 | `O=C(N1CCCC1)N1CCC2(CCN(Cc3ccccn3)C2=O)C1.O=C(O)C(F)(F)F` (centres undefined) | - | - | - | 31.01% |
| 20 | `CC1=N[C@@]2(CC[C@@H]3CN(S(=O)(=O)N(C)C)C[C@@H]32)C(=O)N1CC(C)C` | 9.023% | 6.077% | 2.829% | - |
| 21 | `Cc1cc(N2CCN(C(=O)CCc3scnc3C)CC2)nc(N)n1` | -8.791% | -1.807% | -6.737% | -2.059% |
| 22 | `[H][C@]12C[C@H](NC(=O)c3cnn(C)c3)[C@@]1([H])CN(S(=O)(=O)c1ccc(C)cc1)C2` | - | - | - | -3.158% |
| 23 | `CO[C@@H]1CC[C@H]2[C@H]1OCCN2CCOCc1ccccc1` | 4% | 1.031% | 3.325% | - |
| 24 | `CC(C)CC(NC(=O)Nc1ccc(F)c(Cl)c1)C(=O)O` (centres undefined) | 1.099% | 2.062% | 1.934% | -14.76% |
| 25 | `COc1cccc(-c2n[nH]cc2CNCC2CCS(=O)(=O)C2)c1` (centres undefined) | 12.07% | 6.806% | 3.487% | -29.28% |
| 26 | `O=C(O)C(F)(F)F.[H][C@@]12OCCN(C(=O)C3CCOCC3)[C@@]1([H])CC[C@H]2OCc1ccncc1` | - | - | - | 36.15% |
| 27 | `Cc1ncnc2c1CCN(Cc1nccs1)CC2.O=C(O)C(F)(F)F` | - | - | - | -7.907% |
| 28 | `CNc1nc(CNC(=O)Nc2ccc(OC(C)C)cc2F)cs1` | 14.67% | 2.89% | 1.673% | 38.53% |
| 29 | `[H][C@@]12CN(c3ccc(Cl)cn3)C[C@]1([H])N(CCc1ccc(F)cc1)C(=O)O2` | - | - | - | 3.295% |
| 30 | `Cc1cccc(COC[C@]23COC[C@H]2CN(c2ncccn2)C3)n1` | 8.257% | 5.882% | 4.351% | - |
| 31 | `COc1cccn(C(C)C(=O)NC2CCCC2)c1=O` (centres undefined) | 18.31% | 6.077% | 5.415% | 28.93% |
| 32 | `COc1cccc(CNC(Cc2cccs2)c2nc(C)c(C)s2)c1OC` (centres undefined) | -20% | 5.224% | 1.406% | - |
| 33 | `CC(C)C(NC(=O)Nc1ccc(F)cc1)C(=O)N(C)C` (centres undefined) | 15.22% | 8% | -0.1752% | -0.8367% |

The first 3 entries again:

Result for O=C(c1cccc2ncccc12)N1CCCN(c2cccnn2)CC1 was LiHisRS: 23.14%; TcHisRS: 0.8403%; PfKRS1: 5.078%; Leishmania in macrophages: 17.37%.
Result for COCc1nc(CN2CCOC(CNc3cccnn3)C2)cs1 (centres undefined) was LiHisRS: 35.09%; TcHisRS: 19.2%; PfKRS1: 0.4408%; Leishmania in macrophages: 12.19%.
Result for CCCN1CCC2(CC1)COc1ccccc1S(=O)(=O)N(CC1CC1)C2 was LiHisRS: 5.128%; TcHisRS: 2.439%; PfKRS1: 1.465%.